Measured values as given in PubChem BioAssay AID248 (DTP/NCI, 2004).
The list does not hold the whole screen: it gathers tests that were run many times, whatever their T/C, doses with no T/C, and many T/C values between a quarter and a half above the control. Other doses and runs of a compound stand elsewhere. T/C is the treated group as % of the vehicle group. Some doses have a count of surviving animals in place of a T/C: the source files T/C as zero there, which appears to mark a toxic dose or a test without result, not a measured value. Some doses without a T/C left all or most animals alive at the check, yet need not have been tolerated: survival well below the control is almost never listed, so the zero probably covers shortened survival too. Survivors were counted at the toxicity check, usually on the fifth day, unless a day is given; later deaths do not show. Schedules are NCI's codes, taken here to give the interval after Q, in days (D) or hours (H), and the number of doses after X. Some schedule codes hold Z or #, which are not explained here. Where survival is the endpoint, this PubChem deposit counts one and a half times the control or more as active, and values a quarter to a half above the control carry no call in these data; other NCI protocols may use other cut-offs. Some T/C values are followed by the survivors on the day toxicity was checked, most often the fifth; where none is given, no animal had died by that day. Some entries hold several experiments; their values stand side by side, smallest first. Marks such as (2×) stand for listed records that agree.

System: L1210 leukemia ip in BDF1 mice, survival T/C
Assay: NCI In Vivo Anticancer Drug Screen. Data for tumor model L1210 Leukemia (intraperitoneal) in B6D2F1 (BDF1) mice
Conditions: T/C endpoint: mean survival time, higher T/C = longer survival

Compound: O=P1(N(CCCl)CCCl)NCCCO1 (stereo not given)
- T/C (dose: 150.0 mg/kg/injection, schedule: Q01DX001 (ip), vehicle: water, evaluated on day 60): 164, 179, 290 % of control
- T/C (dose: 150.0 mg/kg/injection, schedule: Q02DX010 (ip), vehicle: carboxymethylcellulose (CMC)): 99, 103, 113, 114, 118 % of control
- T/C (dose: 180.0 mg/kg/injection, schedule: Q01DX001 (ip), vehicle: saline, evaluated on day 5): 412 and 443 % of control
- T/C (dose: 180.0 mg/kg/injection, schedule: Q01DX001 (ip), vehicle: saline, evaluated on day 60): 179 % of control
- T/C (dose: 180.0 mg/kg/injection, schedule: Q01DX001 (ip), vehicle: saline, evaluated on day 69): 358 % of control
- survivor count (dose: 180.0 mg/kg/injection, schedule: Q01DX010 (ip), vehicle: saline): 6 of 6
- T/C (dose: 200.0 mg/kg/injection, schedule: Q01DX001 (ip), vehicle: saline, evaluated on day 5): 175, 186, 203, 399, 408 % of control
- T/C (dose: 200.0 mg/kg/injection, schedule: Q01DX001 (ip), vehicle: saline, evaluated on day 7): 340 and 408 % of control
- T/C (dose: 200.0 mg/kg/injection, schedule: Q01DX001 (ip), vehicle: saline, evaluated on day 30): 108, 163, 180, 185, 212, 218, 220, 238, 252, 277, 279, 305, 306 % of control
- T/C (dose: 200.0 mg/kg/injection, schedule: Q01DX001 (ip), vehicle: saline, evaluated on day 35): 245 % of control
- T/C (dose: 200.0 mg/kg/injection, schedule: Q01DX001 (ip), vehicle: saline, evaluated on day 45): 175, 204, 219, 247, 277, 300, 377 % of control
- T/C (dose: 200.0 mg/kg/injection, schedule: Q01DX001 (ip), vehicle: saline, evaluated on day 60): 145, 275, 276, 289, 300, 304, 432, 534 % of control
- T/C (dose: 200.0 mg/kg/injection, schedule: Q01DX001 (ip), vehicle: saline, evaluated on day 63): 413 % of control
- T/C (dose: 200.0 mg/kg/injection, schedule: Q01DX001 (ip), vehicle: saline, evaluated on day 64): 340 % of control
- T/C (dose: 200.0 mg/kg/injection, schedule: Q01DX001 (ip), vehicle: saline, run until all animals had died): 244 and 262 % of control
- survivor count (dose: 200.0 mg/kg/injection, schedule: Q01DX Z (ip), vehicle: saline): 6 of 6
- survivor count (dose: 200.0 mg/kg/injection, schedule: Q#A X Z (ip), vehicle: saline): 0 of 6
- T/C (dose: 225.0 mg/kg/injection, schedule: Q01DX001 (ip), vehicle: saline, evaluated on day 60): 231 and 542 % of control
- T/C (dose: 225.0 mg/kg/injection, schedule: Q01DX001 (ip), vehicle: saline, run until all animals had died): 241 and 275 % of control
- T/C (dose: 225.0 mg/kg/injection, schedule: Q02DX010 (ip), vehicle: carboxymethylcellulose (CMC)): 86, 93, 97 (2×), 98 % of control
- T/C (dose: 234.0 mg/kg/injection, schedule: Q04DX002 (ip), vehicle: saline): 270, 272, 300, 302 % of control
- T/C (dose: 250.0 mg/kg/injection, schedule: Q01DX001 (ip), vehicle: saline, evaluated on day 5): 464 % of control
- T/C (dose: 250.0 mg/kg/injection, schedule: Q01DX001 (ip), vehicle: saline, evaluated on day 30): 167 and 269 % of control
- T/C (dose: 250.0 mg/kg/injection, schedule: Q01DX001 (ip), vehicle: saline, evaluated on day 38): 98 % of control [5 of 6 alive]
- T/C (dose: 250.0 mg/kg/injection, schedule: Q01DX001 (ip), vehicle: saline, evaluated on day 60): 577 % of control
- T/C (dose: 250.0 mg/kg/injection, schedule: Q01DX001 (ip), vehicle: water): 137 % of control
- survivor count (dose: 282.0 mg/kg/injection, schedule: Q07DX002 (ip), vehicle: saline): 7 of 10
- T/C (dose: 300.0 mg/kg/injection, schedule: Q01DX001 (ip), vehicle: saline with Tween-80): 139 % of control [7 of 10 alive]
- T/C (dose: 300.0 mg/kg/injection, schedule: Q01DX001 (ip), vehicle: saline, evaluated on day 5): 407 and 510 % of control
- T/C (dose: 300.0 mg/kg/injection, schedule: Q01DX001 (ip), vehicle: saline, evaluated on day 20): 294 % of control
- T/C (dose: 300.0 mg/kg/injection, schedule: Q01DX001 (ip), vehicle: saline, evaluated on day 30): 146, 207, 208 [4 of 6 alive], 237, 241, 260, 267 [5 of 6 alive], 274, 288, 290, 308, 326, 333 % of control
- T/C (dose: 300.0 mg/kg/injection, schedule: Q01DX001 (ip), vehicle: saline, evaluated on day 45): 337, 386, 442, 510, 517, 540 % of control
- T/C (dose: 300.0 mg/kg/injection, schedule: Q01DX001 (ip), vehicle: saline, evaluated on day 60): 352, 353 [7 of 8 alive], 364, 528, 556, 570, 596 % of control
- T/C (dose: 300.0 mg/kg/injection, schedule: Q01DX001 (ip), vehicle: saline, evaluated on day 69): 449 % of control
- T/C (dose: 300.0 mg/kg/injection, schedule: Q01DX001 (ip), vehicle: water, evaluated on day 4): 462 and 644 % of control
- T/C (dose: 300.0 mg/kg/injection, schedule: Q01DX001 (ip), vehicle: water, evaluated on day 5): 476, 520, 574 % of control
- T/C (dose: 300.0 mg/kg/injection, schedule: Q01DX001 (ip), vehicle: water, evaluated on day 30): 409 [9 of 10 alive] and 457 % of control
- T/C (dose: 300.0 mg/kg/injection, schedule: Q01DX001 (ip), vehicle: water, evaluated on day 60): 482, 574, 659 % of control
- survivor count (dose: 300.0 mg/kg/injection, schedule: Q#A X Z (ip), vehicle: saline): 0 of 6
- T/C (dose: 400.0 mg/kg/injection, schedule: Q01DX001 (ip), vehicle: saline, evaluated on day 5): 416 % of control
- T/C (dose: 400.0 mg/kg/injection, schedule: Q01DX001 (ip), vehicle: saline, evaluated on day 6): 184 % of control
- T/C (dose: 400.0 mg/kg/injection, schedule: Q01DX001 (ip), vehicle: saline, evaluated on day 7): 108, 164, 353 % of control
- T/C (dose: 400.0 mg/kg/injection, schedule: Q01DX001 (ip), vehicle: saline, evaluated on day 30): 137 [5 of 6 alive], 207, 210, 290, 290 [5 of 6 alive], 292 [5 of 6 alive], 305 [5 of 6 alive], 333 [4 of 6 alive], 333 % of control [5 of 6 alive] (2×)
- T/C (dose: 400.0 mg/kg/injection, schedule: Q01DX001 (ip), vehicle: saline, evaluated on day 31): 184 % of control
- T/C (dose: 400.0 mg/kg/injection, schedule: Q01DX001 (ip), vehicle: saline, evaluated on day 60): 162 [8 of 10 alive], 206, 526 % of control
